Measured data: PubChem BioAssay AID1259254 (NCATS, 2017)
Here is a random part of about 59,000 deposited reagents. In the full data, about 1,550 (2.6%) are marked active. 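G2 share is only a proxy for re-replication; each gene was hit by three separate siRNAs, and active genes were retested.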 The numbers tell different reagents against one gene apart. Not all columns of the deposit are shown. Not stated in the record: the amount of reagent.

- Test: 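Gene knock-downs that lead to re-replication, shown by excess G2 DNA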 (primary screen)
- Cells: human HCT116 colorectal cancer cells
- Reagents: single siRNA against human genes
- Time to read-out: 3 days
- Measured: 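Nuclei stained with Hoechst and imaged; cell-cycle phase assigned by DNA content; G2 share scaled per plate, non-targeting siRNA 0%, GMNN siRNA 100%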
- Reading the numbers: G2 robust z-score: higher = more G2 cells, more excess DNA replication
- Call rule: 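Active siRNAs have a G2 robust z of 5 or more median absolute deviations over the median, which in these data means about 38% or higher of GMNN control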

{"gene symbol": "OR10X1", "siRNA no.": 1, "G2 robust z-score": 1.99, "outcome": "inactive"}
{"gene symbol": "OR10X1", "siRNA no.": 2, "G2 robust z-score": -0.0304, "outcome": "inactive"}
{"gene symbol": "OR10X1", "siRNA no.": 3, "G2 robust z-score": 0.15, "outcome": "inactive"}
{"gene symbol": "TAS2R9", "siRNA no.": 1, "G2 robust z-score": -0.566, "outcome": "inactive"}
{"gene symbol": "TAS2R9", "siRNA no.": 2, "G2 robust z-score": 0.937, "outcome": "inactive"}
{"gene symbol": "TAS2R9", "siRNA no.": 3, "G2 robust z-score": -0.289, "outcome": "inactive"}
{"gene symbol": "OR8B2", "siRNA no.": 1, "G2 robust z-score": 8.28, "outcome": "active"}
{"gene symbol": "OR8B2", "siRNA no.": 2, "G2 robust z-score": 3.6, "outcome": "inactive"}
{"gene symbol": "OR8B2", "siRNA no.": 3, "G2 robust z-score": 1.03, "outcome": "inactive"}
{"gene symbol": "GDF5", "siRNA no.": 1, "G2 robust z-score": 0.848, "outcome": "inactive"}
{"gene symbol": "GDF5", "siRNA no.": 2, "G2 robust z-score": -0.672, "outcome": "inactive"}
{"gene symbol": "GDF5", "siRNA no.": 3, "G2 robust z-score": -0.392, "outcome": "inactive"}
{"gene symbol": "BTN2A2", "siRNA no.": 1, "G2 robust z-score": 0.931, "outcome": "inactive"}
{"gene symbol": "BTN2A2", "siRNA no.": 2, "G2 robust z-score": 0.899, "outcome": "inactive"}
{"gene symbol": "BTN2A2", "siRNA no.": 3, "G2 robust z-score": -0.297, "outcome": "inactive"}
{"gene symbol": "PARD6B", "siRNA no.": 1, "G2 robust z-score": 0.724, "outcome": "inactive"}
{"gene symbol": "PARD6B", "siRNA no.": 2, "G2 robust z-score": -0.406, "outcome": "inactive"}
{"gene symbol": "PARD6B", "siRNA no.": 3, "G2 robust z-score": 8.01, "outcome": "active"}
{"gene symbol": "TREH", "siRNA no.": 1, "G2 robust z-score": -1.05, "outcome": "inactive"}
{"gene symbol": "TREH", "siRNA no.": 2, "G2 robust z-score": 6.97, "outcome": "active"}
{"gene symbol": "TREH", "siRNA no.": 3, "G2 robust z-score": -0.573, "outcome": "inactive"}
{"gene symbol": "PPP3CA-DT", "siRNA no.": 1, "G2 robust z-score": -0.00486, "outcome": "inactive"}
{"gene symbol": "PPP3CA-DT", "siRNA no.": 2, "G2 robust z-score": -1.13, "outcome": "inactive"}
{"gene symbol": "PPP3CA-DT", "siRNA no.": 3, "G2 robust z-score": -0.65, "outcome": "inactive"}
{"gene symbol": "ENSA", "siRNA no.": 1, "G2 robust z-score": 4.02, "outcome": "inactive"}
{"gene symbol": "ENSA", "siRNA no.": 2, "G2 robust z-score": 0.102, "outcome": "inactive"}
{"gene symbol": "ENSA", "siRNA no.": 3, "G2 robust z-score": 0.471, "outcome": "inactive"}
{"gene symbol": "LIX1L", "siRNA no.": 1, "G2 robust z-score": -0.958, "outcome": "inactive"}
{"gene symbol": "LIX1L", "siRNA no.": 2, "G2 robust z-score": 1.22, "outcome": "inactive"}
{"gene symbol": "LIX1L", "siRNA no.": 3, "G2 robust z-score": 0.666, "outcome": "inactive"}

Laid out differently: 3 of the entries above.
| gene symbol | siRNA no. | G2 robust z-score | outcome |
| --- | --- | --- | --- |
| TAS2R9 | 2 | 0.937 | inactive |
| TAS2R9 | 3 | -0.289 | inactive |
| OR8B2 | 1 | 8.28 | active |
